Reference: paper PMC5805777
Results are given in words; binding and its absence hold for the method and conditions named. Some binding calls cover weakened binding; strength is not graded here.

Sequences of proteins named here, by UniProt entry; tags and fusion partners are left off.
UniProt P0A6F5: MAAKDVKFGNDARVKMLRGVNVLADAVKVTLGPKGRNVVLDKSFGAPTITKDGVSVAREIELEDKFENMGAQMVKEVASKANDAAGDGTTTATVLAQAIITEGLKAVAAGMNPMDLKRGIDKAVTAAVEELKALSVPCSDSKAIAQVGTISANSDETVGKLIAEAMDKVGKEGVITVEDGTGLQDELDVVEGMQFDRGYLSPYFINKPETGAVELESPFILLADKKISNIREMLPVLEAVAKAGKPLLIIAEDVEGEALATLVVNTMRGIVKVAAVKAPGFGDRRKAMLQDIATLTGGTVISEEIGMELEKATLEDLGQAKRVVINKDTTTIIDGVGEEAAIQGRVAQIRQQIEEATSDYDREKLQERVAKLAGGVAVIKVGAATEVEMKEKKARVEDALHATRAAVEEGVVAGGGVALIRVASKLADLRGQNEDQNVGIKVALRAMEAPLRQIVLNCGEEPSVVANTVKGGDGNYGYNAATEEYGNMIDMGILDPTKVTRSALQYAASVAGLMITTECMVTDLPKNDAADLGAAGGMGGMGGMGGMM

Biological target: T1, recombinant Sirt4 (residues 29-314) (human) (UniProt Q9Y6E7)
T1 sequence: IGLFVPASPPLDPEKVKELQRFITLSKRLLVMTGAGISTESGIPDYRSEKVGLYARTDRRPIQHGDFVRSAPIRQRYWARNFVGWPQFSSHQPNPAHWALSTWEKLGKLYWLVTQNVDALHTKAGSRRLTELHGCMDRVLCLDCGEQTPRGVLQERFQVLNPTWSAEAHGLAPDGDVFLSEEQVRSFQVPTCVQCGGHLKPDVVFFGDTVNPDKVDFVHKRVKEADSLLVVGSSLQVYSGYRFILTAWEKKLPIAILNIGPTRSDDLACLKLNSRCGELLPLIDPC
Experiment: co-purification; GST-Sirt4 co-expressed with GroEL/GroES/Tig in E. coli; Glutathione Sepharose 4B, PreScission cleavage, anion exchange column; GroEL stayed with Sirt4

GroEL (from UniProt P0A6F5 1-548) was tested, and the binding was “binds”.
